{"source": "PubChem BioAssay AID1159578 (Peter MacCallum Cancer Centre, 2015)", "screen": "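siRNA pools altering how lymphatic endothelial cells close a scratch wound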 (primary screen)", "cell system": "human lymphatic endothelial cells", "knock-down reagent": "siRNA pool against human genes, 40 nM", "time to read-out": "48 h after transfection", "measured": "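Cells stained with dye and imaged after a scratch; covered wound area and nuclei counted, duplicates averaged, migration set against mock wells and turned into a robust z-score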", "scale": "migration robust z-score: higher = faster migration into the scratch; nuclei per well: higher = more cells in the well", "rule for the call": "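Pools averaging fewer than 3300 nuclei are never called; remaining pools count as changed when migration robust z lies outside -2 to 2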", "calls": "active = migration changed; inactive = no migration change, or too few cells", "note": "The whole screen tested about 18,000 reagents; shown is a part drawn at random. Over the whole deposit, about 1,030 (5.7%) got an active call. 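Inactive calls also include pools with fewer than 3300 nuclei, whose migration was not assessed.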 Raw values are not corrected between plates. Further read-outs or replicates are left out here."}
{"gene symbol":"TACR1","PubChem SID":"SID255352726","migration robust z-score":1.32,"migration class with cell-count check":"migration z between -2 and 2; enough cells","nuclei per well, duplicate mean":6944,"Call":"inactive"}
{"gene symbol":"EFEMP1","PubChem SID":"SID255349638","migration robust z-score":0.18,"migration class with cell-count check":"migration z between -2 and 2; enough cells","nuclei per well, duplicate mean":5344,"Call":"inactive"}
{"gene symbol":"RUNX3","PubChem SID":"SID255348716","migration robust z-score":-0.68,"migration class with cell-count check":"migration z between -2 and 2; enough cells","nuclei per well, duplicate mean":5180,"Call":"inactive"}
{"gene symbol":"TMEM147","PubChem SID":"SID255355071","migration robust z-score":0.82,"migration class with cell-count check":"migration z between -2 and 2; enough cells","nuclei per well, duplicate mean":6530,"Call":"inactive"}
{"gene symbol":"GNG12","PubChem SID":"SID255358972","migration robust z-score":0.09,"migration class with cell-count check":"migration z between -2 and 2; enough cells","nuclei per well, duplicate mean":5971,"Call":"inactive"}
{"gene symbol":"INTS6L","PubChem SID":"SID255364131","migration robust z-score":-0.78,"migration class with cell-count check":"migration z between -2 and 2; enough cells","nuclei per well, duplicate mean":4322,"Call":"inactive"}
{"gene symbol":"ZNF48","PubChem SID":"SID255363995","migration robust z-score":0.08,"migration class with cell-count check":"migration z between -2 and 2; enough cells","nuclei per well, duplicate mean":4840,"Call":"inactive"}
{"gene symbol":"NUP54","PubChem SID":"SID255357923","migration robust z-score":0.38,"migration class with cell-count check":"migration z between -2 and 2; enough cells","nuclei per well, duplicate mean":6786,"Call":"inactive"}
{"gene symbol":"UNC45B","PubChem SID":"SID255363307","migration robust z-score":-0.32,"migration class with cell-count check":"migration z between -2 and 2; enough cells","nuclei per well, duplicate mean":6752,"Call":"inactive"}
{"gene symbol":"VAX2","PubChem SID":"SID255356475","migration robust z-score":1.58,"migration class with cell-count check":"migration z between -2 and 2; enough cells","nuclei per well, duplicate mean":6161,"Call":"inactive"}
{"gene symbol":"PEAR1","PubChem SID":"SID255365354","migration robust z-score":2.31,"migration class with cell-count check":"migration z above 2; enough cells","nuclei per well, duplicate mean":6323,"Call":"active"}
{"gene symbol":"DHX40","PubChem SID":"SID255360371","migration robust z-score":0.15,"migration class with cell-count check":"migration z between -2 and 2; enough cells","nuclei per well, duplicate mean":3493,"Call":"inactive"}
{"gene symbol":"LYSMD3","PubChem SID":"SID255362342","migration robust z-score":-2.9,"migration class with cell-count check":"under 3300 nuclei; migration not judged","nuclei per well, duplicate mean":2936,"Call":"inactive"}
{"gene symbol":"SMPD2","PubChem SID":"SID255352530","migration robust z-score":-0.26,"migration class with cell-count check":"migration z between -2 and 2; enough cells","nuclei per well, duplicate mean":3994,"Call":"inactive"}

Only “migration robust z-score”, for 2 of the entries above:
PEAR1 [SID255365354]	2.31
DHX40 [SID255360371]	0.15
